Measurements published in patent EP4590718A1.
These are yes or no findings as the source states them, for the method shown. Some results given as binding are weak or reduced against the parent protein; the word gives no strength. Tags and fused reporters may be left off the sequences shown.

Molecular target: T1, FLAG tag
T1 sequence (peptide): DYKDDDDK
Assay: Biacore (SPR)

B1: parental mouse antibody (mouse VH/VL in the context of human constant regions) (antibody, V domains shown)
VH: QVQLQQSAGELARPGASVKMSCKASGYSFTTYTIHWVKQRPGQGLEWIGYINPSSGYAAYNQNFKDETTLTADKSSSTAYMQLSSLTSEDSAVYYCAREKFYGYDYWGQGTTLTVSS
VL: DVLMTQLPLSLPVSLGDQASISCRSSQSIVHRNGNTYLEWYLLKPGQSPKLLIYKVSNRFSGVPDRFSGSGSGTDFTLKISRVEAEDLGVYYCFQGSHVPYTFGGGTKLEIK
B1 was tested, and the binding was “binds”.
